Data as given in PubChem BioAssay AID1159578 (Peter MacCallum Cancer Centre, 2015).
Here is one part, drawn at random, of about 18,000 reagents. In the full data, about 1,030 (5.7%) got an active call. 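Inactive calls also include pools with fewer than 3300 nuclei, whose migration was not assessed.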 The raw values are shown without normalisation. Further read-outs or replicates are left out here. No sequences are given here.

- Screen: 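Knock-downs that alter how fast lymphatic endothelial cells migrate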 (primary screen)
- Cells: human lymphatic endothelial cells
- Knock-down reagent: siRNA pool against human genes, 40 nM
- Duration: 48 h after transfection
- Measurement: 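High-content imaging of dye-stained cells in a scratch assay measures filled wound area and nuclei per well; duplicate means given as ratio to mock and robust z-score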
- Direction: migration robust z-score: higher = faster migration into the scratch; nuclei per well: higher = more cells in the well
- Rule for the call: 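Pools averaging fewer than 3300 nuclei are never called; remaining pools count as changed when migration robust z lies outside -2 to 2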
- Meaning of the calls: active = migration changed; inactive = no migration change, or too few cells

THEM5
- migration robust z-score: -0.39
- migration class with cell-count check: migration z between -2 and 2; enough cells
- nuclei per well, duplicate mean: 5798
- activity call: inactive

ZNF404
- migration robust z-score: 0.47
- migration class with cell-count check: migration z between -2 and 2; enough cells
- nuclei per well, duplicate mean: 7052
- activity call: inactive

FEM1B
- migration robust z-score: 0.7
- migration class with cell-count check: migration z between -2 and 2; enough cells
- nuclei per well, duplicate mean: 4610
- activity call: inactive

IL15RA
- migration robust z-score: -0.64
- migration class with cell-count check: migration z between -2 and 2; enough cells
- nuclei per well, duplicate mean: 4248
- activity call: inactive

CNOT12
- migration robust z-score: 0
- migration class with cell-count check: migration z between -2 and 2; enough cells
- nuclei per well, duplicate mean: 5795
- activity call: inactive

RPL13
- migration robust z-score: -0.88
- migration class with cell-count check: migration z between -2 and 2; enough cells
- nuclei per well, duplicate mean: 4477
- activity call: inactive

FREM2
- migration robust z-score: 0.02
- migration class with cell-count check: migration z between -2 and 2; enough cells
- nuclei per well, duplicate mean: 6425
- activity call: inactive

DDTL
- migration robust z-score: -1
- migration class with cell-count check: migration z between -2 and 2; enough cells
- nuclei per well, duplicate mean: 5884
- activity call: inactive

RALB
- migration robust z-score: 0.28
- migration class with cell-count check: migration z between -2 and 2; enough cells
- nuclei per well, duplicate mean: 4856
- activity call: inactive

3 of these entries, set out differently:
| target | migration robust z-score | migration class with cell-count check | nuclei per well, duplicate mean | activity call |
| --- | --- | --- | --- | --- |
| RPL13 | -0.88 | migration z between -2 and 2; enough cells | 4477 | inactive |
| FREM2 | 0.02 | migration z between -2 and 2; enough cells | 6425 | inactive |
| DDTL | -1 | migration z between -2 and 2; enough cells | 5884 | inactive |

Further results:
RELT
- migration robust z-score: -2.93
- migration class with cell-count check: migration z below -2; enough cells
- nuclei per well, duplicate mean: 6012
- activity call: active

DEFB124
- migration robust z-score: -3.33
- migration class with cell-count check: migration z below -2; enough cells
- nuclei per well, duplicate mean: 5482
- activity call: active

AJUBA
- migration robust z-score: -0.6
- migration class with cell-count check: migration z between -2 and 2; enough cells
- nuclei per well, duplicate mean: 6246
- activity call: inactive

PGAP3
- migration robust z-score: 0.02
- migration class with cell-count check: migration z between -2 and 2; enough cells
- nuclei per well, duplicate mean: 5076
- activity call: inactive

KCNK6
- migration robust z-score: -1.34
- migration class with cell-count check: migration z between -2 and 2; enough cells
- nuclei per well, duplicate mean: 4921
- activity call: inactive

NPTX2
- migration robust z-score: 0.62
- migration class with cell-count check: migration z between -2 and 2; enough cells
- nuclei per well, duplicate mean: 5746
- activity call: inactive

CCDC14
- migration robust z-score: -1.58
- migration class with cell-count check: migration z between -2 and 2; enough cells
- nuclei per well, duplicate mean: 6476
- activity call: inactive

RTKN2
- migration robust z-score: 1.42
- migration class with cell-count check: migration z between -2 and 2; enough cells
- nuclei per well, duplicate mean: 5294
- activity call: inactive

HNRNPH3
- migration robust z-score: -0.93
- migration class with cell-count check: migration z between -2 and 2; enough cells
- nuclei per well, duplicate mean: 6126
- activity call: inactive

MTFR2
- migration robust z-score: -0.53
- migration class with cell-count check: under 3300 nuclei; migration not judged
- nuclei per well, duplicate mean: 3299
- activity call: inactive

GPD1L
- migration robust z-score: 0.75
- migration class with cell-count check: migration z between -2 and 2; enough cells
- nuclei per well, duplicate mean: 4867
- activity call: inactive

FAM9A
- migration robust z-score: -0.57
- migration class with cell-count check: migration z between -2 and 2; enough cells
- nuclei per well, duplicate mean: 4692
- activity call: inactive

LIX1L
- migration robust z-score: 2.54
- migration class with cell-count check: migration z above 2; enough cells
- nuclei per well, duplicate mean: 7891
- activity call: active

RNFT1
- migration robust z-score: 0.34
- migration class with cell-count check: migration z between -2 and 2; enough cells
- nuclei per well, duplicate mean: 6426
- activity call: inactive

TMEM62
- migration robust z-score: -0.62
- migration class with cell-count check: migration z between -2 and 2; enough cells
- nuclei per well, duplicate mean: 6558
- activity call: inactive

OSGEP
- migration robust z-score: -0.62
- migration class with cell-count check: migration z between -2 and 2; enough cells
- nuclei per well, duplicate mean: 5428
- activity call: inactive

ZNF544
- migration robust z-score: 0.54
- migration class with cell-count check: migration z between -2 and 2; enough cells
- nuclei per well, duplicate mean: 4798
- activity call: inactive

MRPL54
- migration robust z-score: 0.12
- migration class with cell-count check: migration z between -2 and 2; enough cells
- nuclei per well, duplicate mean: 4495
- activity call: inactive
